Pks13 thioesterase: 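Polyketide synthase Pks13, Mycobacterium tuberculosis (UniProt I6X8D2). Enzyme assay of the thioesterase domain of polyketide synthase 13; the read-out is not stated. Concentration: 30 µM. The record gives no direction; the compounds picked for IC50 retests had high values, so higher reads as stronger inhibition. About 67,000 compounds were tested under these conditions; 0.46% (about 300) showed 50% or more at least once.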
Toxoplasma: 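Assay of Toxoplasma gondii numbers, read through their beta-galactosidase reporter with a colour substrate. Compounds at 10 µM. Higher reads as fewer parasites (inferred from which compounds were picked for retests). About 67,000 compounds were tested under these conditions; 0.38% (about 260) showed 50% or more at least once.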
CoaBC: 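Coenzyme A biosynthesis protein CoaBC, Mycobacterium tuberculosis (UniProt P9WNZ1). Enzyme assay of CoaBC with a phosphate dye (Biomol Green) read at 650 nm. Tested at 30 µM. Direction is inferred from only a few compounds that gave an IC50; most scored high, so higher reads as stronger inhibition. Most strong results did not repeat in a second test. About 67,000 compounds were tested under these conditions; 0.06% (about 40) showed 50% or more at least once.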
ClpP1P2: 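ClpP1P2, Mycobacterium tuberculosis (UniProt P9WPC5 and UniProt P9WPC3). Protease assay of ClpP1P2, read by the AMC dye that it sets free. Tested at 50 µM. Higher reads as stronger inhibition, judged from the few compounds that gave an IC50. Most other retested compounds had strongly negative values. Of about 69,000 compounds tested this way, about 10 (0.015%) reached 50% or more in at least one test.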
Leishmania in macrophages: 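Cell assay of Leishmania donovani living inside macrophages; the read-out is not stated. Compounds at 30 µM. Higher reads as stronger inhibition (inferred: compounds with an IC50 in retests scored well above the rest). About 69,000 compounds were tested under these conditions; 1.5% (about 1,000) showed 50% or more at least once.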
MtTrpRS: 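Tryptophan-tRNA ligase, Mycobacterium tuberculosis (UniProt P9WFT3). Enzyme assay of tryptophanyl-tRNA synthetase; the read-out is not stated. Compounds at 10 µM. Higher most likely means stronger inhibition; the record gives no direction and few retests gave an IC50. Of about 65,000 compounds tested this way, about 64 (0.098%) reached 50% or more in at least one test.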

Amino acid sequences for entries named in this document (tags omitted).
UniProt I6X8D2, whole entry: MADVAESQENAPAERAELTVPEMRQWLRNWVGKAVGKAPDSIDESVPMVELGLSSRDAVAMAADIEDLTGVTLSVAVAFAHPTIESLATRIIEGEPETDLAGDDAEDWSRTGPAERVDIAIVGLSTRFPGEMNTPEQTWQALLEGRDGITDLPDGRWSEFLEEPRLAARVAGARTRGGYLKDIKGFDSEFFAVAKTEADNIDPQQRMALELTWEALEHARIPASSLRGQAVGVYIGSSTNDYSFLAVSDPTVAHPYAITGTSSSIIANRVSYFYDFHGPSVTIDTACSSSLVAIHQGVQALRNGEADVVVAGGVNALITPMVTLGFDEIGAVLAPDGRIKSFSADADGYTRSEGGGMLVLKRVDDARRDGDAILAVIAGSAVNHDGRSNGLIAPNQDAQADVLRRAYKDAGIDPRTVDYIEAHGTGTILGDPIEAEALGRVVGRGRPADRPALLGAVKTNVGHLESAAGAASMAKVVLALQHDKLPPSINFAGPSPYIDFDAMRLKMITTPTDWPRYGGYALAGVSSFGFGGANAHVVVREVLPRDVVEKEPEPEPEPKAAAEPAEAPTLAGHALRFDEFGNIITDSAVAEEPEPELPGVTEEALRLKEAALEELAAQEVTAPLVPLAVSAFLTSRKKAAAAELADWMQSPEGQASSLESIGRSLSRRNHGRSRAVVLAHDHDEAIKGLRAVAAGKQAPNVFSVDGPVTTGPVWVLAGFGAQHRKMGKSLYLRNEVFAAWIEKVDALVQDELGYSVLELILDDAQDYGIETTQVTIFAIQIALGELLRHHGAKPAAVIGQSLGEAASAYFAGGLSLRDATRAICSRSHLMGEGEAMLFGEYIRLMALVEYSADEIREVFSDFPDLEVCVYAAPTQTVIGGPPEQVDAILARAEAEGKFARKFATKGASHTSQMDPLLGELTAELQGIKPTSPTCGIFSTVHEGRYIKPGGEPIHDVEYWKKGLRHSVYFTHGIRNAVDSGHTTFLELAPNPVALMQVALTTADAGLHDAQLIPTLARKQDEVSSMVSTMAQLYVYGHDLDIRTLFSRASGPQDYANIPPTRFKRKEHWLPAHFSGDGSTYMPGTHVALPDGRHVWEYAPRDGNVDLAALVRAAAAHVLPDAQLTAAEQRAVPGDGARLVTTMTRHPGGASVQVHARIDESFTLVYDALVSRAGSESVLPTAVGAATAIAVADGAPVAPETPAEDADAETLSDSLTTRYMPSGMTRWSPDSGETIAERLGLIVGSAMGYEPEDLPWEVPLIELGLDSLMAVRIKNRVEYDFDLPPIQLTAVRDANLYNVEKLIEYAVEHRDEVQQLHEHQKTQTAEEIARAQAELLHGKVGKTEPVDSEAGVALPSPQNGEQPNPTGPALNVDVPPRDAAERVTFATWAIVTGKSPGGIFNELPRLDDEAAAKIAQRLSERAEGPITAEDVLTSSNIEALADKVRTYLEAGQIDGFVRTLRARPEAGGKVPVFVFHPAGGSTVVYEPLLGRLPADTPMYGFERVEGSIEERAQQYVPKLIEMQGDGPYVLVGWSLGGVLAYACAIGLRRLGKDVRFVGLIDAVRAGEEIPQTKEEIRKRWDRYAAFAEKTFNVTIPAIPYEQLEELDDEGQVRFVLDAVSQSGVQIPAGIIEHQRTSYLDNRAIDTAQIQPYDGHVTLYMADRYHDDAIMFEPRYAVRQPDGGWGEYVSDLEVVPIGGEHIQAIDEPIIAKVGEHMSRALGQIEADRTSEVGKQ
UniProt P9WNZ1, whole entry: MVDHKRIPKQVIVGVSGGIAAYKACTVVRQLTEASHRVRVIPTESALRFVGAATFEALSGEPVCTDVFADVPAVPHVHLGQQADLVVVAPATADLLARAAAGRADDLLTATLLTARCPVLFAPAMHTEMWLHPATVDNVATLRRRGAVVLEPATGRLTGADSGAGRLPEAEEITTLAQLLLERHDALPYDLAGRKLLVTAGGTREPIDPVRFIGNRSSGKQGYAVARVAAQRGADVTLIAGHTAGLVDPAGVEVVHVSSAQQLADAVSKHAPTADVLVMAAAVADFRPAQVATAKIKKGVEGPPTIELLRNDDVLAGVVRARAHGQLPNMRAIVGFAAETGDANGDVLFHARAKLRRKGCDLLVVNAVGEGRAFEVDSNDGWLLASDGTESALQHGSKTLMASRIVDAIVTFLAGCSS
UniProt P9WPC5, whole entry: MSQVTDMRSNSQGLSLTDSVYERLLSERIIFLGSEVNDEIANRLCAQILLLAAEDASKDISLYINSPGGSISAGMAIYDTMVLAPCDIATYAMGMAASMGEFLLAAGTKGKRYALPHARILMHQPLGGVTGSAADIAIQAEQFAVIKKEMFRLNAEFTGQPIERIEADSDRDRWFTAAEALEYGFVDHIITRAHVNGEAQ
UniProt P9WPC3, whole entry partner: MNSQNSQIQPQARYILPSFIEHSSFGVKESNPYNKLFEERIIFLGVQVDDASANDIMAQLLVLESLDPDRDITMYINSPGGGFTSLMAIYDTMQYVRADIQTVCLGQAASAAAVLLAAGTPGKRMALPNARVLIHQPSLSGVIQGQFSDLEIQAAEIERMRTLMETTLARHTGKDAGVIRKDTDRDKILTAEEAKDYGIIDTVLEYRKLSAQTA
UniProt P9WFT3, whole entry: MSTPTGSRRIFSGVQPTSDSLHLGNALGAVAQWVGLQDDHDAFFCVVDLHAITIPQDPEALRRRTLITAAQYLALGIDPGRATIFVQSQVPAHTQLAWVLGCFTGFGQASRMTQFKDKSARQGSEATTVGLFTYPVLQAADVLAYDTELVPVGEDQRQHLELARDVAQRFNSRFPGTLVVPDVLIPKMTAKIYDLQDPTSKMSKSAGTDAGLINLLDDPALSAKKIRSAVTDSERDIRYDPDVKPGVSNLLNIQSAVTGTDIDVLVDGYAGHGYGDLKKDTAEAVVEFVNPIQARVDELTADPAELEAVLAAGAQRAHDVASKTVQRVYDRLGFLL

Each number is a percent effect as filed. How 0% and 100% were set is not recorded. Most values in the screen are low, and negative values occur. The compounds are a random part of those screened. Two or more numbers in one place are separate tests of the same structure; such repeats can differ widely.

SMILES: Cc1nn(C)c(C)c1NC(=O)CNC(c1ccccc1)C1CCC1 (stereo not shown)
Pks13 thioesterase: 0.3238%
Toxoplasma: -2.624%
CoaBC: 2.686%
ClpP1P2: -26.77%
Leishmania in macrophages: -38.14%
MtTrpRS: -2.861%

SMILES: CC(C)c1cn(CC(=O)NC2CC(=O)N(CCc3ccccc3)C2)nn1 (stereo not shown)
Pks13 thioesterase: -2.38%
Toxoplasma: -4.297%
CoaBC: -1.699%
ClpP1P2: -18.63%
Leishmania in macrophages: 18.08%
MtTrpRS: -6.272%

SMILES: CSc1nccc(N2CCC(NCc3ccc4c(c3)OCO4)CC2)n1
Pks13 thioesterase: -2.561%
Toxoplasma: -18.91%
CoaBC: 8.679%
ClpP1P2: -10.17%
Leishmania in macrophages: 33.29%
MtTrpRS: 1.905%

SMILES: Cn1ncnc1-c1ccnc(NCCCc2ccncc2)n1
Pks13 thioesterase: -10.98%
Toxoplasma: -2.7%
CoaBC: 2.206%
ClpP1P2: -9.054%
Leishmania in macrophages: 11.07%
MtTrpRS: 3.086%

SMILES: CCc1[nH]ncc1C(=O)N1CCN(c2nccc(OC)n2)CC1
Pks13 thioesterase: -29.33%
Toxoplasma: 5.133%
CoaBC: -1.297%
ClpP1P2: 6.796%
Leishmania in macrophages: 10.73%
MtTrpRS: 1.312%

SMILES: NC(=O)NC(=O)CCSc1ccccc1Cl
Pks13 thioesterase: -16.74%
Toxoplasma: 4.933%
CoaBC: -0.2484%
ClpP1P2: -2.226%
Leishmania in macrophages: 2.765%
MtTrpRS: 3.303%

SMILES: O=C(O)c1ccccc1-n1cnc(CN2CCc3ccccc32)c1
Pks13 thioesterase: 9.648%
Toxoplasma: -6.127%
CoaBC: -1.35%
ClpP1P2: -19.43%
Leishmania in macrophages: -9.486%
MtTrpRS: -8.828%

SMILES: CN(Cc1ccccc1-n1cccn1)c1nc(N)nc2c1CCNCC2
Pks13 thioesterase: -26.67%
Toxoplasma: -10.61%
CoaBC: 0.3764%
ClpP1P2: -8.574%
Leishmania in macrophages: 24.16%
MtTrpRS: -3.549%

SMILES: O=C(CCNc1ncccn1)Nc1ccc(Cn2cncn2)cc1
Pks13 thioesterase: -0.2651%
Toxoplasma: 1.903%
CoaBC: 20.1% & 26.01%
ClpP1P2: -8.377%
Leishmania in macrophages: 16.4%
MtTrpRS: -5.432%

SMILES: O=C(CCNc1ccccc1)NC1CCN(C(=O)C2CCCCC2)CC1
Pks13 thioesterase: -8.34%
Toxoplasma: 18.42%
CoaBC: 9.794% & 21.88%
ClpP1P2: 7.523%
Leishmania in macrophages: 9.867%
MtTrpRS: -2.508%

SMILES: O=C(c1cn[nH]c1)N1CCC2(CCCN(Cc3ccc(F)c(F)c3)C2)C1 (stereo not shown)
Pks13 thioesterase: -4.519%
Toxoplasma: -9.296%
CoaBC: -1.449%
ClpP1P2: -0.4293%
Leishmania in macrophages: -25.6%
MtTrpRS: -4.364%

SMILES: Cc1noc(C)c1C(=O)N1CCC(c2[nH]ncc2S(C)(=O)=O)C1 (stereo not shown)
Pks13 thioesterase: -22.37%
Toxoplasma: 10.49%
CoaBC: 0.4854%
ClpP1P2: -10.27%
Leishmania in macrophages: 29.8% & -10.84%

SMILES: COC(=O)C1CCCCN1Cc1cccc(C(=O)NCc2ccco2)c1 (stereo not shown)
Pks13 thioesterase: -1.088%
Toxoplasma: -21.44%
CoaBC: -0.1965%
ClpP1P2: -5.961%
Leishmania in macrophages: -0.009903%
MtTrpRS: 3.423%

SMILES: CC(C)C(C)(C#N)NC(=O)Cn1cc(Cl)cn1 (stereo not shown)
Pks13 thioesterase: -28.6%
Toxoplasma: 14.28%
CoaBC: 2.893%
ClpP1P2: 2.335%
Leishmania in macrophages: 7.266%
MtTrpRS: -2.918%

SMILES: Cc1cc(N2CCN(Cc3ccsc3)C(CCO)C2)nc(N)n1 (stereo not shown)
Pks13 thioesterase: -10.59%
Toxoplasma: -32.59%
CoaBC: 2.433%
ClpP1P2: -13.25%
Leishmania in macrophages: 39.08%
MtTrpRS: -0.9441%

For reference, 2 entries once more:

- Cc1nn(C)c(C)c1NC(=O)CNC(c1ccccc1)C1CCC1 (stereo not shown) | Pks13 thioesterase: 0.3238%; Toxoplasma: -2.624%; CoaBC: 2.686%; ClpP1P2: -26.77%; Leishmania in macrophages: -38.14%; MtTrpRS: -2.861%
- NC(=O)NC(=O)CCSc1ccccc1Cl | Pks13 thioesterase: -16.74%; Toxoplasma: 4.933%; CoaBC: -0.2484%; ClpP1P2: -2.226%; Leishmania in macrophages: 2.765%; MtTrpRS: 3.303%

The values are deposited in ChEMBL (CHEMBL3988442, “University of Dundee, Small-Polar-MMV Screening Library” (2021)).